{"source": "patent US10435411B2", "about": "“Oxime group-containing quinoline compound, N-oxide thereof or salt thereof, agricultural and horticultural insecticide comprising the compound, and method for using the insecticide” (Nihon Nohyaku Co., Ltd., priority 2016, dated 2019)", "note": "Some of these results come from one statement about several compounds together."}
{"test_system": "Myzus persicae", "assay": "Test for control efficacy on Myzus persicae (foliar application, potted Chinese cabbage)", "type": "in vivo", "conditions": "500 ppm dispersion in water, foliar application to Chinese cabbage, 6 days after application"}
{"smiles": "CCS(=O)(=O)c1cc2ccc(C=NOCSC)cc2nc1-c1nc2cc(SC(F)(F)F)ccc2n1C", "note": "[Compound 5-3]", "control efficacy (control rate) activity level": "A (the control rate is 100%.)"}
{"smiles": "CCS(=O)(=O)c1cc2ccc(C=NOC[S+](C)[O-])cc2nc1-c1nc2cc(C(F)(F)C(F)(F)F)nnc2n1C", "note": "(stereo not drawn) [Compound 6-4]", "control efficacy (control rate) activity level": "A (the control rate is 100%.)"}
{"smiles": "CCS(=O)(=O)c1cc2ccc(C=NOCSC)cc2nc1-c1nc2cc(C(F)(F)C(F)(F)F)nnc2n1C", "note": "[Compound 6-3]", "control efficacy (control rate) activity level": "A (the control rate is 100%.)"}
{"smiles": "CCS(=O)(=O)c1cc2ccc(C=NOC[S+](C)[O-])cc2nc1-c1nc2cc(S(=O)(=O)C(F)(F)F)ccc2n1C", "note": "(stereo not drawn) [Compound 5-7]", "control efficacy (control rate) activity level": "A (the control rate is 100%.)"}
{"smiles": "CCS(=O)(=O)c1cc2ccc(C=NOCC(F)(F)F)cc2nc1-c1nc2cc(S(=O)(=O)C(F)(F)F)ccc2o1", "note": "[Compound 4-27]", "control efficacy (control rate) activity level": "A (the control rate is 100%.)"}
{"smiles": "CCS(=O)(=O)c1cc2ccc(C=NOCC(F)F)cc2nc1-c1nc2cc(C(F)(F)F)nnc2n1C", "note": "[Compound 6-7]", "control efficacy (control rate) activity level": "A (the control rate is 100%.)"}
{"smiles": "CCS(=O)(=O)c1cc2cc(C=NOCC(F)(F)F)ccc2nc1-c1nc2cc(S(=O)(=O)C(F)(F)F)ccc2o1", "note": "[Compound 3-27]", "control efficacy (control rate) activity level": "A (the control rate is 100%.)"}
{"smiles": "CCS(=O)(=O)c1cc2ccc(C=NO)cc2nc1-c1nc2cc(S(=O)(=O)C(F)(F)F)ccc2o1", "note": "[Compound 4-21]", "control efficacy (control rate) activity level": "A (the control rate is 100%.)"}
{"smiles": "CCS(=O)(=O)c1cc2ccc(C=NOC(C)C)cc2nc1-c1nc2cc(C(F)(F)C(F)(F)F)nnc2n1C", "note": "[Compound 6-2]", "control efficacy (control rate) activity level": "A (the control rate is 100%.)"}
{"smiles": "CCS(=O)(=O)c1cc2ccc(C=NO)cc2nc1-c1nc2cc(S(=O)(=O)C(F)(F)F)ccc2n1C", "note": "[Compound 5-4]", "control efficacy (control rate) activity level": "A (the control rate is 100%.)"}
{"smiles": "CCS(=O)(=O)c1cc2ccc(C=NOCS(C)(=O)=O)cc2nc1-c1nc2cc(S(=O)(=O)C(F)(F)F)ccc2n1C", "note": "[Compound 5-8]", "control efficacy (control rate) activity level": "A (the control rate is 100%.)"}
{"smiles": "CCON=Cc1ccc2nc(-c3nc4cc(S(=O)(=O)C(F)(F)F)ccc4o3)c(S(=O)(=O)CC)cc2c1", "note": "[Compound 3-23]", "control efficacy (control rate) activity level": "A (the control rate is 100%.)"}
{"smiles": "CCS(=O)(=O)c1cc2ccc(C=NOCS(C)=NC#N)cc2nc1-c1nc2cc(C(F)(F)F)nnc2n1C", "note": "(stereo not drawn) [Compound 6-11]", "control efficacy (control rate) activity level": "A (the control rate is 100%.)"}
{"smiles": "CCS(=O)(=O)c1cc2ccc(C=NOCC(F)F)cc2nc1-c1nc2cc(SC(F)(F)F)ccc2n1C", "note": "[Compound 5-2]", "control efficacy (control rate) activity level": "A (the control rate is 100%.)"}
{"smiles": "CCS(=O)(=O)c1cc2cc(C=NO)ccc2nc1-c1nc2cc(S(=O)(=O)C(F)(F)F)ccc2o1", "note": "[Compound 3-21]", "control efficacy (control rate) activity level": "A (the control rate is 100%.)"}
{"smiles": "CCCON=Cc1ccc2cc(S(=O)(=O)CC)c(-c3nc4cc(S(=O)(=O)C(F)(F)F)ccc4o3)nc2c1", "note": "[Compound 4-25]", "control efficacy (control rate) activity level": "A (the control rate is 100%.)"}
{"smiles": "CCS(=O)(=O)c1cc2ccc(C=NOCSC)cc2nc1-c1nc2cc(S(=O)(=O)C(F)(F)F)ccc2n1C", "note": "[Compound 5-6]", "control efficacy (control rate) activity level": "A (the control rate is 100%.)"}
{"smiles": "CCS(=O)(=O)c1cc2ccc(C=NOCS(C)(=O)=O)cc2nc1-c1nc2cc(C(F)(F)C(F)(F)F)nnc2n1C", "note": "[Compound 6-5]", "control efficacy (control rate) activity level": "A (the control rate is 100%.)"}
{"smiles": "CCS(=O)(=O)c1cc2ccc(C=NOC(C)C)cc2nc1-c1nc2cc(S(=O)(=O)C(F)(F)F)ccc2o1", "note": "[Compound 4-41]", "control efficacy (control rate) activity level": "A (the control rate is 100%.)"}
{"smiles": "CCS(=O)(=O)c1cc2cc(C=NOCC(F)F)ccc2nc1-c1nc2cc(S(=O)(=O)C(F)(F)F)ccc2o1", "note": "[Compound 3-33]", "control efficacy (control rate) activity level": "A (the control rate is 100%.)"}
{"smiles": "CCS(=O)(=O)c1cc2cc(C=NO)ccc2nc1-c1nc2cc(SC(F)(F)F)ccc2o1", "note": "[Compound 3-1]", "control efficacy (control rate) activity level": "A (the control rate is 100%.)"}
